PubChem BioAssay AID2685 (National Center for Advancing Translational Sciences (NCATS), 2010)
Some of the results follow. These are further read-outs of the screen, such as a control signal, another cell line or another target. No call is given for them. Compounds called inactive in the main read-out are mostly missing here. The note in brackets gives the kind of curve behind each potency; many fits are weak.

Assay: qHTS Assay for Lipid Storage Modulators in Drosophila S3 Cells;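 on cell number change: cells counted by Cell Tracker Red CMTPX staining in the red channel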
Conditions: BODIPY lipid droplet fluorescence, 18-24 h; for cell number change: measured here: cell count max response, cells fed with added oleic acid
Summary of the method: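 Laser-scanning cytometry quantifies lipid droplet accumulation (500–530 nm total intensity; droplet/cell object ratio) in oleic acid-fed (400 uM added) Drosophila S3 cells treated with a concentration series. 20 uM Triacsin C defined 100% inhibition.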

[1] = measured here: lipid fluorescence (Fed channel) AC50, cells fed with added oleic acid
[2] = measured here: cell number channel AC50, cells fed with added oleic acid

SMILES	AC50 [1]	cell number change [%]	AC50 [2]
O=C1c2ccc3c4c(ccc(c24)C(=O)N1c1cccc(O)c1)C(=O)N(c1cccc(O)c1)C3=O	3.66 µM [falling, single point]	–	–
COc1ccc(OCC(=O)Nc2ccc3c(c2)nc(CCN2CCC(C)CC2)n3C)cc1	0.58 µM [falling, single point]	-11.8	–
O=C(C[C@H]1C(=O)N(C2CCCCC2)C[C@@H]1Cc1ccccc1)Nc1ccccc1	29.1 µM [falling, single point]	20.7	–
CC(=O)Nc1ccc(-c2cc(-c3ccc(NC(C)=O)cc3)nc(-c3ccccc3)n2)cc1	3.26 µM [falling, partial curve]	-21.2	–
CCN1CCN(CCCNC(=O)C2c3ccccc3C(=O)N(C)C2c2ccc(OC)cc2)CC1 (centres undefined)	0.0058 µM [falling, full curve, poor fit]	-23.2	–
COc1cccc(-c2ccc(NC(=O)C3CCCN(Cc4ccc(CO)o4)C3)cc2)c1 (centres undefined)	0.259 µM [falling, full curve]	4.11	–
O=C(Nc1cccc(Cl)c1)c1cccc(N2C(=O)C3CC=CCC3C2=O)c1 (centres undefined)	13 µM [falling, partial curve, poor fit]	-6.67	–
COc1ccccc1N(C)S(=O)(=O)c1ccc(Cl)c(C(=O)N2CCC2)c1	–	–	0.116 µM [rising, full curve, poor fit]
COC(=O)[C@@]12CCCCN1[C@H](c1ccc(-c3ccc(OC)cc3)c(OC)c1)[C@@H]1C(=O)N(C)C(=O)[C@@H]12	23.1 µM [falling, single point]	-43.5	9.2 µM [falling, partial curve]
CCOC(=O)c1ccccc1NC(=O)CSc1nc2ccccc2o1	8.2 µM [rising, partial curve]	-3.02	–
COc1ccccc1-c1cc(C(=O)Nc2c(C)n(C)n(-c3ccccc3)c2=O)no1	23.1 µM [falling, partial curve, poor fit]	-30.5	13 µM [falling, partial curve, poor fit]
Cc1ccc(S(=O)(=O)N(C)C)cc1NC(=O)Nc1ccccc1F	2.31 µM [falling, partial curve, poor fit]	–	7.31 µM [falling, single point]
Cc1cccc(C(=O)Nc2ccc(C(=O)/C=C/c3ccncc3)cc2)c1	10.3 µM [falling, single point]	–	–
CC[C@]1(c2ccccc2OC)ON(c2ccccc2C(F)(F)F)C1=O	4.61 µM [falling, single point]	-87.8	5.8 µM [falling, partial curve]
O=C(NC1CCCCC1)c1cc2cc(Br)ccc2o1	29.1 µM [falling, single point]	-31	7.31 µM [falling, partial curve, poor fit]
COc1ccc(N2CCN(Cc3nc4cc(Cl)ccc4c(=O)[nH]3)CC2)cc1	5.8 µM [falling, full curve]	9.85	6.51 µM [falling, single point]
O=C(O)C(Cc1ccccc1)NS(=O)(=O)c1ccc(Cl)cc1 (centres undefined)	0.0731 µM [rising, full curve, poor fit]	11.9	–
O=C(CN1CCN(C/C=C/c2ccccc2)CC1)Nc1ccccc1C(=O)NC1CC1	7.31 µM [falling, partial curve, poor fit]	14.1	–

Record cards, as listed above.
COc1cccc(-c2ccc(NC(=O)C3CCCN(Cc4ccc(CO)o4)C3)cc2)c1 (centres undefined) reads AC50 [1]: 0.259 µM [falling, full curve]; cell number change [%]: 4.11
CCN1CCN(CCCNC(=O)C2c3ccccc3C(=O)N(C)C2c2ccc(OC)cc2)CC1 (centres undefined) reads AC50 [1]: 0.0058 µM [falling, full curve, poor fit]; cell number change [%]: -23.2

(further entries)

SMILES	AC50 [1]	cell number change [%]	AC50 [2]
Cc1cccc(N(C)S(=O)(=O)c2csc(C(N)=O)c2)c1	0.651 µM [falling, single point]	–	–
O=C(O)c1cccc(CSc2nnc(-c3ccco3)o2)c1	0.411 µM [falling, full curve]	-71.7	2.59 µM [falling, partial curve, poor fit]
Cc1ccc(S(=O)(=O)N2[C@@H](c3ccccc3)C(C(=O)O)=CC[C@H]2c2cccc(Cl)c2)cc1	0.731 µM [falling, single point]	18.8	–
C[n+]1ccc(/C=C/c2c[nH]c3ccccc23)cc1	1.64 µM [falling, full curve]	–	–
CCOc1ccc(N=C(NC#N)SCC(=O)NC2CC2)cc1	–	-11.1	–
Oc1oc(-c2ccccc2)nc1/C=N/c1ccccn1	–	-2.45	–
C/C(=N\Nc1ccc(S(N)(=O)=O)cc1[N+](=O)[O-])c1ccc2c(c1)OCO2	0.651 µM [falling, full curve]	-14.3	0.651 µM [falling, single point]
CCN(Cc1ccccc1)S(=O)(=O)c1ccc(S(=O)(=O)N2CCN(CCC#N)CC2)cc1	–	29.3	–
CC1CC(C)CN(C(=O)COC(=O)COc2ccccc2C#N)C1 (centres undefined)	1.84 µM [falling, full curve]	-41.1	4.61 µM [falling, partial curve]
CC(C)c1ccc(-c2cc(C(=O)N3CCOCC3)c3cc(Br)ccc3n2)cc1	–	7.62	–
COc1ccc(NC(=O)c2ccc(CNc3c(NC4CCCCC4)c(=O)c3=O)cc2)cc1OC	–	16.8	–
CCc1ccc2oc(-c3ccc(OC)cc3)cc(=Nc3cccc(C(=O)O)c3)c2c1	–	0.968	0.651 µM [falling, single point]
CCOC(=O)C1=C(c2ccccc2)NC(SCC(=O)NC2CCCCC2)=C(C#N)C1c1ccco1 (centres undefined)	0.517 µM [falling, full curve]	-30.9	2.06 µM [falling, partial curve]
CN(C)C=Nc1ccc2nc3c(cc2c1)[nH]c1ccccc13	0.164 µM [falling, full curve, poor fit]	-3.66	–
COC(=O)CCC(=O)Nc1sc2c(c1C#N)CCCC2	9.2 µM [rising, partial curve, poor fit]	-18.5	–
CNC(=O)COc1ccc(C=O)cc1OC	–	58.4	16.4 µM [rising, single point]
O=C1N=C(N2CCOCC2)S/C1=C\c1cccnc1	–	106	2.31 µM [falling, single point]
